Assay results as given in PubChem BioAssay AID1508600 (Functional Genomics Laboratory (NCATS/FGL), 2020).
Hit rate of the full screen: of about 53,000 sequences, about 3,700 (7%) were called active.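 Rule for the calls: active = gene knockdowns whose robust z-score for IL-1 alpha signal is at least 2 or at most -2, so actives lie on both sides; inactive = the rest.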 Some of the results follow.

assay: Components of the Cytosolic LPS Sensing Pathway: Gene Identification via Genome-wide siRNA Screen; details: RAW264.7 macrophages, IL-1a HTRF, actives lie on both sides, screened at 100 nM (by protocol), cells primed 5 h with Pam3CSK4 first;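 note: robust z of the log signal after scaling to non-targeting control siRNA wells of the plate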
Outline: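 Cells (RAW264.7, 1×10^4 per well) were transfected with siRNA at 100 nM and cultured 48h at 37 degrees C. Pam3CSK4 was added for 5 hours; LipidA transfection followed for 24 hour. IL-1a was then measured by HTRF.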

z-score, inactive:
GGGACUGGAUUGUUGUUGUTT against Slc40a1 -0.906
GUGUCUGCUACCAUCGAAATT against Antkmt 1.23
GGAUAUUUAUUGUAUCCCATT against Col8a1 -0.918
GCUUCUAAUUGGAGAUUGCTT against Bex3 -1.39
GGACUUCUUAACCGCCCUGTT against Sirt5 0.355
GCAGCGAUGGGUGUUUAUGTT against Dleu7 1.35
GGAGCAGAAACUUGUCAAATT against Pik3c2g 0.716
GCAAUACCACCAAGAAAUATT against Zcchc8 -0.221
GGGCUAACCUAGGUGGACUTT against Eci1 0.811
GGUUGUGGUCUUUGUUCUGTT against Olfr923 -1.11
GGUGGUUUUGUUUCUUUUUTT against Tab3 0.643
GGUUUCGACUCUGAUGUCATT against Elp5 -1.53
GGAUCAAAUUAUGUCUUUGTT against Chuk 0.261
GGAGGAGACAGAGAUCAUUTT against Ruvbl2 -1.31
CGAGUAGAGGACUUCUACATT against Olfml2a 1.38
GGAACAUGAACACCAUCUGTT against Klk10 -1.18
GGAGCUCAUCUUCACAGGCTT against Echdc2 -0.401
GGCCGUGGAAUUUUAGACATT against Mtrf1 0.386
GGAGUCAAGAUCAUCUUCCTT against Tbc1d10a -1.18
CCAAGAUCCAGUUCAGUUATT against Oaz3 0.236
GCUUGGUAAAGAAAAACGATT against Xrcc5 -0.567
CCUGAUGUUCUCCUGUCUATT against Xcr1 -0.299
GGGUCAAUUAUUUAUGGUUTT against Gpr146 0.269
GGUAGAGAUGUACAUUUGGTT against Chrdl2 -1.72
GGAGGCAGUUCGAAGAAUUTT against Rab9 1.23
GGAGAACUUAAAGCACAAUTT against Plxnb1 0.179
GGCUCUUUGGAGACCAUCATT against 4930432E11Rik -1.7
GGACAGACUGAUUAAGAAATT against Paqr8 -0.569
CCAAAGACCUUGGUCAUAATT against Tle3 -1.19
GGCUCAGUUUCGAAUUAAATT against Commd5 0.85
GCAAUGCUUACUUUUAUGGTT against Zmpste24 0.199
GCACAAUGGAAGGUGUCCUTT against Tas2r114 0.597
GGAAGGUCUUUGGGAACUGTT against Insl5 0.05
GGGACAAGUGUUCUACUAUTT against Msra -1.73
GCUACAGCGGAAACUUCCUTT against Vps25 -0.124
GCACUCCACUUUUGUACACTT against Cdc42ep5 0.924
GGACAUCACUUGGAGACGATT against Capn10 -0.282
GGACUUCAUCAAAGUCUUATT against Cyp11a1 0.109
GCUAUUUUGGGACGAGUCATT against Col13a1 -0.7
GGUUAAGAACUGUUCAGAUTT against Ifnar2 0.337
GGUGGAAUAUAUUGAGUAUTT against Fam199x 0.251
GGGCGACUUAUUUUUUGUUTT against Zfp111 0.333
GGGCAUCCUUCAACUUCAGTT against Zfp608 1.06
GCUUCAAGAACGAACUGUUTT against Bmp10 -0.108
GGCUGUACAGUCAUGCAAGTT against Adamts5 0.000591
GAUGACUCGGGUCCGAGUATT against Mrpl14 0.713
GGAGCUGAAUCAUUAUCUGTT against Rabep1 -0.0512
GGAGAACAUCACCAGUUACTT against Samd4b 1.06
GGCAUUCACGUGUACUCCUTT against Slc26a5 -0.7
GGAAAAUUAUCCUAGUGCUTT against Serpinb2 -0.355
GGACAAGCAAGAGAUGCUUTT against Atp6v1h 1.05
GGCAUCCAACUUCUUUAUGTT against Mrgpra7 -0.472
GCUCCUGAGAGCUAUAGUUTT against Ddx39a -1.23
GGUAGUGUUAACUAUAUGGTT against Hmgb3 -0.401
GGGAGCAGUAGCAGUGUCATT against Ggnbp2 -0.834
GGAAAUCCACAGAUUAAGATT against Hspa13 0.61
GGCACUUUGGAUUAAUUGUTT against Pole4 -0.186
GGUGACAGUUGUUCACAAATT against 4933405O20Rik -1.4
CCUCUGAUCGAAAGUCUAATT against Ccdc9 1.39
GGGACAAAUCUUUUGAUUATT against Impact 0.983
GGAAACAGUCCAGAACGAGTT against Yju2 -0.828
GCAUUGUCAUGAUACAACATT against Fem1b 0.793
GGAAUAUACAGUGAAGACATT against Sycp1 0.755
GGUGGACUCAUUCUAAUACTT against Nudt1 -1.06
GGACUUAGCGGAUAAUGACTT against Nlgn3 -0.597

5 entries drawn at random from those above, as already listed:
z-score, inactive:
GGACUUCUUAACCGCCCUGTT against Sirt5 0.355
GCUCCUGAGAGCUAUAGUUTT against Ddx39a -1.23
GGAGAACUUAAAGCACAAUTT against Plxnb1 0.179
GCUUCAAGAACGAACUGUUTT against Bmp10 -0.108
GGUGACAGUUGUUCACAAATT against 4933405O20Rik -1.4

Following part.

z-score, active:
GCACAAUAAAGCUUGUUGCTT against Trmt2a -2.26
CGUGAUGAGUGAAAAUGAUTT against Cd34 -2.12
GCAAUUUGAGCAGUAUGUATT against Cpsf7 -2.85
